No constants are given. Whether binding was seen depends on the method and setting. Binding seen in cells or lysates may run through a third protein. Some binding calls cover weakened binding; strength is not graded here. Sequences can lack the tags named with a protein.
Columns and labels:
[1] = molecular target: T1, FLAG-P58^IPK (UniProt Q13217); assay: co-IP; lysates of co-transfected 293T cells; immunoprecipitation with anti-FLAG antibody or control mouse IgG, then Western blot; cells non-treated or treated with Tg (300 nM) for 16 hours
T1 sequence: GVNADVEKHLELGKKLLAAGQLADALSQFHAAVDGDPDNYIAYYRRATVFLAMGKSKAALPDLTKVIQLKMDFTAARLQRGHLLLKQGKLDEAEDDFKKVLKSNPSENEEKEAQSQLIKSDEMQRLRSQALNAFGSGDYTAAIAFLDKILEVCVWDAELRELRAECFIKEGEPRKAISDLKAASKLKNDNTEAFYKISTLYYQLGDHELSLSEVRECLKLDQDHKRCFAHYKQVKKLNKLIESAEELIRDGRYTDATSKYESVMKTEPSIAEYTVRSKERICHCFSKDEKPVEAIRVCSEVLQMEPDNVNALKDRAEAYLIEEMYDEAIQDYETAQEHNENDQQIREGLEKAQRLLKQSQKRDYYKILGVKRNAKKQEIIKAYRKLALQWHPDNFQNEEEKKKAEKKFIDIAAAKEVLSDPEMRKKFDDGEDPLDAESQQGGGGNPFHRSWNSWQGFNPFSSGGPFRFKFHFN

The chains behind the UniProt entries cited, without tags or fusion partners. Residues count along the entry.
UniProt P11021, residues 148-654: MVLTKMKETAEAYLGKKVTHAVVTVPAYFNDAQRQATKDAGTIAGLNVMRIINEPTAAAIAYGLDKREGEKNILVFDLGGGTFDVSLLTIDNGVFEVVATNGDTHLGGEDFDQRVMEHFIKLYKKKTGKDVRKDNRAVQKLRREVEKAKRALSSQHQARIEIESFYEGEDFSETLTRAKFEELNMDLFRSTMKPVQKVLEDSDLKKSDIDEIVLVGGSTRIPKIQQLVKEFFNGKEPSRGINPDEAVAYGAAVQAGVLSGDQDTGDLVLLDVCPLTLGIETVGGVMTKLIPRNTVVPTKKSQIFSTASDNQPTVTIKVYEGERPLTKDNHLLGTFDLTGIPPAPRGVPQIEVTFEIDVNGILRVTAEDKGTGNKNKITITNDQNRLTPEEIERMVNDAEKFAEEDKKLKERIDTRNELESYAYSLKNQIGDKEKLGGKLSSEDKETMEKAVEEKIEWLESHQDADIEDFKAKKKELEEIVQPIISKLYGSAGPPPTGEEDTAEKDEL

[2] = molecular target: T2, P58^IPK-FLAG (UniProt Q13217); assay: as above
T2 sequence: T1 sequence

binding [1]: binds
binding [2]: binds
Substance: HA-GRP78va (from UniProt P11021 148-654)

Source: PMC2729930
